Laboratory results as given in the supplement of paper PMC12595434, “Development of retinoid nuclear receptor pathway antagonists through targeting aldehyde dehydrogenase 1A3” (iScience, 2025).
Some of the results follow. The data scatter; read single values as rough.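 Tm was set to 64 °C where no melting was found, and many curves are irregular.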

Protein sequences, listed by entry. Tags and fused reporters are not part of them. Lines headed by an entry give the natural chain unless they say otherwise; changes in a name come on top.
UniProt Q4VCS5: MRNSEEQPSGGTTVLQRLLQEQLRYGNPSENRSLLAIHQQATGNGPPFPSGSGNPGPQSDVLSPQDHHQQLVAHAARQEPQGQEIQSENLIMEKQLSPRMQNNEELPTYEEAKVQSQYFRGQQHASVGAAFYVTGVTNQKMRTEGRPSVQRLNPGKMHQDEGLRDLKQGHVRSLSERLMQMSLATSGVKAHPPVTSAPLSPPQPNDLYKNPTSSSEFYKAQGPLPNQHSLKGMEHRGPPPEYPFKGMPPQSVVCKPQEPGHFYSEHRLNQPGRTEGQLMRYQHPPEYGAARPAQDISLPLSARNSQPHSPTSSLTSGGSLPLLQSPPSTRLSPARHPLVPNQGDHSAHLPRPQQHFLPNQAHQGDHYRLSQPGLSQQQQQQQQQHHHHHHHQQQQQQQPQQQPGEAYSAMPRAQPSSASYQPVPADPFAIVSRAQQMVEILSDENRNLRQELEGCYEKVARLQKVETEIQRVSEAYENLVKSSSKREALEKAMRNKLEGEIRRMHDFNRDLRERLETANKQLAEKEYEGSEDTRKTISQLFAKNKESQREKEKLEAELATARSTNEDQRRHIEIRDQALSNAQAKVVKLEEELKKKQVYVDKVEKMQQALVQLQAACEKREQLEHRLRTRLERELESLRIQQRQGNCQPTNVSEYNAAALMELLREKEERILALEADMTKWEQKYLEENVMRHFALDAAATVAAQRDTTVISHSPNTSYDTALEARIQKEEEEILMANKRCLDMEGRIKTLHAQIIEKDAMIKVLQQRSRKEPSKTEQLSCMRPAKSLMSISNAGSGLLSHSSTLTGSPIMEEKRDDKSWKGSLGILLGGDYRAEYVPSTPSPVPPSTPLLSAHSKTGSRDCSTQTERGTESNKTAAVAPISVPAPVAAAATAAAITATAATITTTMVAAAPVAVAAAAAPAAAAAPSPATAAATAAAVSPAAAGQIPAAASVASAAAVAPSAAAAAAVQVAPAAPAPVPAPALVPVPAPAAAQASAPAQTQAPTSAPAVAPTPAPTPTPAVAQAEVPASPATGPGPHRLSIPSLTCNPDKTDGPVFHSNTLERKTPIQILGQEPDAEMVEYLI
UniProt Q15165: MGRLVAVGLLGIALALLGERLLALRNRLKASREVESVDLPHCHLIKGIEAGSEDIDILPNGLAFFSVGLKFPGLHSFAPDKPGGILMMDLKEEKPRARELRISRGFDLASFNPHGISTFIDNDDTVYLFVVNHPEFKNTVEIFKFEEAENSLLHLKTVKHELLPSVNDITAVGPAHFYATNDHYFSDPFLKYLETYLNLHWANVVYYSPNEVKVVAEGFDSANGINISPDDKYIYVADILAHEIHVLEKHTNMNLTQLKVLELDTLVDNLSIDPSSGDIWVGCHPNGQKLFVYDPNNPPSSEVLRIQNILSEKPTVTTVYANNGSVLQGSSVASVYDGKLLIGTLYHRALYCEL
UniProt Q15907: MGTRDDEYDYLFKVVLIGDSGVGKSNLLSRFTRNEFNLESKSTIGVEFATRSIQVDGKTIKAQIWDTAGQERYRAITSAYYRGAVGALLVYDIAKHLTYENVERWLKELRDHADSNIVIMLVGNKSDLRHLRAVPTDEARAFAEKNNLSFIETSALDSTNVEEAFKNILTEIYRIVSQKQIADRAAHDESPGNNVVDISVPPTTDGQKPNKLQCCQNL
UniProt Q15262: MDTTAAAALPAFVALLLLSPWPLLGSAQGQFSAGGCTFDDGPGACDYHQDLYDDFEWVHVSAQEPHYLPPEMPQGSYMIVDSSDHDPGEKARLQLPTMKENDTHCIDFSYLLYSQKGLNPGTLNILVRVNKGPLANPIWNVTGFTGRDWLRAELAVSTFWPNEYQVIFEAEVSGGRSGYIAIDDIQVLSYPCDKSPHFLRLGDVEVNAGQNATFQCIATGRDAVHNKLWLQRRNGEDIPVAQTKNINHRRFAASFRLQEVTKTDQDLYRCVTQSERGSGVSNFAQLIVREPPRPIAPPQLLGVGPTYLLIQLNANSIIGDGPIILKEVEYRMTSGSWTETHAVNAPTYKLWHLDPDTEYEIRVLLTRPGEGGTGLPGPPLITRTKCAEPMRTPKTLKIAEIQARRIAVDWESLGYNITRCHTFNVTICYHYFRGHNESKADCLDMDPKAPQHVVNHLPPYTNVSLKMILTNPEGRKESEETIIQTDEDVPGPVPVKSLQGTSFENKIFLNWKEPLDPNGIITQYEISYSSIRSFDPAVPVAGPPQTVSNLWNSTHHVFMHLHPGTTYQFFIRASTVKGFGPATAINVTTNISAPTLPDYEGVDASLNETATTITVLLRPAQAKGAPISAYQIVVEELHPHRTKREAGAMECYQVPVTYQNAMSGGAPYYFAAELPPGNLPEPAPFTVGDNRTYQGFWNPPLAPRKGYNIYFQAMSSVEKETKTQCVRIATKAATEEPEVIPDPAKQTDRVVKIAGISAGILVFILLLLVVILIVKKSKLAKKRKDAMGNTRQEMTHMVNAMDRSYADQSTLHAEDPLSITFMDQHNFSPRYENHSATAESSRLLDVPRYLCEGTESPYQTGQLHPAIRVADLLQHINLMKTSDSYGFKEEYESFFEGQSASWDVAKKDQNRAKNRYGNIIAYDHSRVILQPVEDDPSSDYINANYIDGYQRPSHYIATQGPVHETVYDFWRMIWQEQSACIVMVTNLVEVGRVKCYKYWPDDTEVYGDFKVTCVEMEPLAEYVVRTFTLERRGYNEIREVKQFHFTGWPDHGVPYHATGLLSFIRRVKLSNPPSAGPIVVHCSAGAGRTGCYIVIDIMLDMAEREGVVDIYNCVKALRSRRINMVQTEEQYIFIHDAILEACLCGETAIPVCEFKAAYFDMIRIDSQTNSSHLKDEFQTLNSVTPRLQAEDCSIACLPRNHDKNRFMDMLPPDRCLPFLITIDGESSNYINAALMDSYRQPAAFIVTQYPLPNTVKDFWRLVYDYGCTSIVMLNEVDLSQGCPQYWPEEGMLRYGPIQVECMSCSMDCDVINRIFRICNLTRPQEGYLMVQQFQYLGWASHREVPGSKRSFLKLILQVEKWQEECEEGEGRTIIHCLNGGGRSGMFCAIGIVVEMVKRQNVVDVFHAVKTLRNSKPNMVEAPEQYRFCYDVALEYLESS
UniProt Q16822, whole entry: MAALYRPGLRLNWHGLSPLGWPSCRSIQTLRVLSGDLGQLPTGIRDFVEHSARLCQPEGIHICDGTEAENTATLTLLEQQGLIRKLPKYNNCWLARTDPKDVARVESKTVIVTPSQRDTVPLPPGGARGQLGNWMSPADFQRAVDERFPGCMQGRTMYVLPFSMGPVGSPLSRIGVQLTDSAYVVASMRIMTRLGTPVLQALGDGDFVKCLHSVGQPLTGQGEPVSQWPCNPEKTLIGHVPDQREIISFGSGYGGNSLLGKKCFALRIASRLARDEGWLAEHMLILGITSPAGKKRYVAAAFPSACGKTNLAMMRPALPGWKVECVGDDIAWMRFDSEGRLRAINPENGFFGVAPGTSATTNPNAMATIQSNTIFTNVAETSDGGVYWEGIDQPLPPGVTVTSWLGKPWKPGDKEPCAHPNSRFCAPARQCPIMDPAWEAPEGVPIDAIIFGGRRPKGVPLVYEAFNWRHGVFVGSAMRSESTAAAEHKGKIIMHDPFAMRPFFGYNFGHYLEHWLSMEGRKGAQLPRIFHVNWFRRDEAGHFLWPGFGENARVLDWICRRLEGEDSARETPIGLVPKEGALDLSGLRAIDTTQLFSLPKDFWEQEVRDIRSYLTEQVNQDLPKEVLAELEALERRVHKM
UniProt Q4V328: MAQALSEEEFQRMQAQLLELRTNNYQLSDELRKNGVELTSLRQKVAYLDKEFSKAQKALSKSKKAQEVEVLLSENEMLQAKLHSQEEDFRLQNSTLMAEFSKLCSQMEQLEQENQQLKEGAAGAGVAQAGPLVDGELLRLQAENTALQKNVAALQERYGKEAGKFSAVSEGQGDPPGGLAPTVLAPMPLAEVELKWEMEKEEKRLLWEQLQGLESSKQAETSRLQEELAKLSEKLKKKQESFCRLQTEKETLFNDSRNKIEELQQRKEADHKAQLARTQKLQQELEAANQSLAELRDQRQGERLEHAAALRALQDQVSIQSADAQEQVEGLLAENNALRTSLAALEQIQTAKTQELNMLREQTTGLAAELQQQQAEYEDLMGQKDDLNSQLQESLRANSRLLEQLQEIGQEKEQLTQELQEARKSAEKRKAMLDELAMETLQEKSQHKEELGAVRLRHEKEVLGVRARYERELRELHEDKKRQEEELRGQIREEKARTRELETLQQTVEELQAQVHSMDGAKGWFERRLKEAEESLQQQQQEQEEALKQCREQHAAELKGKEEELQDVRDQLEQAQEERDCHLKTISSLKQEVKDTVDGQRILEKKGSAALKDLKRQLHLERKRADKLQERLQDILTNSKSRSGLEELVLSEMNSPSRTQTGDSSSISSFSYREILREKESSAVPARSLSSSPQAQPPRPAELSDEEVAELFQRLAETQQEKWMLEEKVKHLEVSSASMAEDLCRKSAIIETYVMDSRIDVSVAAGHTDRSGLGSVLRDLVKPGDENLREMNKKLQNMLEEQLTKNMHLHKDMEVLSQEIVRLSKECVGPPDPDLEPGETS
UniProt Q15746, whole entry: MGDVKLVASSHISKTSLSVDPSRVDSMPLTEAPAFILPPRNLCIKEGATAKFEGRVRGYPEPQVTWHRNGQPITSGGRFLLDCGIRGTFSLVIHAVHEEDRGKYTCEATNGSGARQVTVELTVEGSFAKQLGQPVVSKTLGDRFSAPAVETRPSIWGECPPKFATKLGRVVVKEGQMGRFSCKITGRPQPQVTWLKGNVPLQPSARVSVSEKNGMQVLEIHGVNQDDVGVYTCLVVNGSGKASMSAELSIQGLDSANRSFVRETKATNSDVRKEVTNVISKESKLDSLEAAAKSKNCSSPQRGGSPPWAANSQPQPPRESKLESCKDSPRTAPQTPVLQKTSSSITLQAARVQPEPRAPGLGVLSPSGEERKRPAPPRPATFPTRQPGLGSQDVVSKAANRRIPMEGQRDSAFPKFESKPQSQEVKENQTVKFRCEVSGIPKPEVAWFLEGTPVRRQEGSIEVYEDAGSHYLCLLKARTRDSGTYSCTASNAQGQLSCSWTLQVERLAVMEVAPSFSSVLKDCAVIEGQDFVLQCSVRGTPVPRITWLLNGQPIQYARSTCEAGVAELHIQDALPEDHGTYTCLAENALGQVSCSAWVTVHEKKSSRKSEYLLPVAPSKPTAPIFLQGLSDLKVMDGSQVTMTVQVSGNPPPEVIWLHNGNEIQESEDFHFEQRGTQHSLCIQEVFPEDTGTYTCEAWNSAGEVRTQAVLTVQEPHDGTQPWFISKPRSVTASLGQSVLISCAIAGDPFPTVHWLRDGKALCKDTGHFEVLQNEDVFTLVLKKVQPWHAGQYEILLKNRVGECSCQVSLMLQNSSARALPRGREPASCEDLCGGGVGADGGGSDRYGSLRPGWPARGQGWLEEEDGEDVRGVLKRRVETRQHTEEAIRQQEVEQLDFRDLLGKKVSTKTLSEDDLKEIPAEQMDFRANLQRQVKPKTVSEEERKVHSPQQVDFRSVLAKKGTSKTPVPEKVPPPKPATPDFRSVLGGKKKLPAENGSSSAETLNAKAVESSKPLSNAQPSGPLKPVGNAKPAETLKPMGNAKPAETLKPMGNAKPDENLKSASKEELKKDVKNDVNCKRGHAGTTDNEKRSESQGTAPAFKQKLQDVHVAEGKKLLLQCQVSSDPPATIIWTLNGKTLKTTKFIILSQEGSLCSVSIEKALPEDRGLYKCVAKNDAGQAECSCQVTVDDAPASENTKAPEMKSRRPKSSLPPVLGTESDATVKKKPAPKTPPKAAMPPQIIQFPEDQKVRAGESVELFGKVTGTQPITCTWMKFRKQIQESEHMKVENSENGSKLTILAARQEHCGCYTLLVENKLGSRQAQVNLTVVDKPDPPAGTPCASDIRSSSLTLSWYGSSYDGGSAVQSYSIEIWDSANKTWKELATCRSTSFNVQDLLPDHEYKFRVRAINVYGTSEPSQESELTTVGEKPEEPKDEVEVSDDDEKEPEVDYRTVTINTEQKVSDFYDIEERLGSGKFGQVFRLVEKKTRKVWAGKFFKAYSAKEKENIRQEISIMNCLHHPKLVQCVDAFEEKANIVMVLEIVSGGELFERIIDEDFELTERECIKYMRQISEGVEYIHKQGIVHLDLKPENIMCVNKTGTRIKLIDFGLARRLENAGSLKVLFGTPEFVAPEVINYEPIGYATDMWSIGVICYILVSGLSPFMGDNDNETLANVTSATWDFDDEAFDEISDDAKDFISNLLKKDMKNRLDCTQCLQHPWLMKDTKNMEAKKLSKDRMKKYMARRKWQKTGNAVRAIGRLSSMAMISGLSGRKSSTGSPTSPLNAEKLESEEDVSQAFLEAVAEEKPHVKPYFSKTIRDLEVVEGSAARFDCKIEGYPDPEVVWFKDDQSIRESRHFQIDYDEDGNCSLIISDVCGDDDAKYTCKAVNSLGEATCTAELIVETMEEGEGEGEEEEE

These targets were tested with CCc1cnccc1C(=O)Nc1cc2c(cc1F)NC(=O)CC2 (assay: melting temperature shift (DMSO Tm minus MBE1-treated Tm) in cellular thermal proteome profiling; higher = less thermal stabilization by MBE1 (negative = stabilized by MBE1)). Settings: A375; MBE1 concentration: 100 nM.

Target	melting temperature shift [°C]
SMU1 (UniProt Q2TAY7)	0.879
TRIP6 (UniProt Q15654)	-0.94
UniProt Q4VCS5	1.17
CAMK4 (UniProt Q16566)	-0.885
PON2 (UniProt Q15165)	-0.5
RAB11B (UniProt Q15907)	-1.72
HERC1 (UniProt Q15751)	-0.0855
UniProt Q53GG5	-3.3
SURF2 (UniProt Q15527)	0.539
PDK1 (UniProt Q15118)	-0.0977
UniProt Q4KMQ1	-1.36
PTPRK (UniProt Q15262)	-5.85
PLEC (UniProt Q15149)	0.739
PAN3 (UniProt Q58A45)	-0.216
UniProt Q2LD37	0.0469
FSCN1 (UniProt Q16658)	-0.597
UniProt Q4ADV7	0.275
COBLL1 (UniProt Q53SF7)	0.0183
UniProt Q15776	-3.1

Target	melting temperature shift [°C]
RABL6 (UniProt Q3YEC7)	-0.208
UniProt Q1MSJ5	3.69
PCK2 (UniProt Q16822)	-0.59
UBE2V2 (UniProt Q15819)	-1.04
CWF19L2 (UniProt Q2TBE0)	-0.577
ALDH1L2 (UniProt Q3SY69)	1.57
SEC23A (UniProt Q15436)	0.128
SMN1 (UniProt Q16637)	-0.0847
DDB1 (UniProt Q16531)	-0.378
HSDL1 (UniProt Q3SXM5)	-0.647
UniProt Q15361	0.0128
GRIPAP1 (UniProt Q4V328)	0.556
ARID4B (UniProt Q4LE39)	-0.275
MYLK (UniProt Q15746)	3.82
UniProt Q2VPB7	-2.16
LACTB2 (UniProt Q53H82)	-4.13
UniProt Q2M1P5	-0.702
FUT11 (UniProt Q495W5)	-0.785

Same assay, conditions: A375; MBE1 concentration: 1 uM

Target	melting temperature shift [°C]
SMU1 (UniProt Q2TAY7)	0.666
TRIP6 (UniProt Q15654)	1.52
UniProt Q4VCS5	-1.07
CAMK4 (UniProt Q16566)	0.519
PON2 (UniProt Q15165)	0.305
RAB11B (UniProt Q15907)	0.244
HERC1 (UniProt Q15751)	0.318
UniProt Q53GG5	-1.64
SURF2 (UniProt Q15527)	-0.946
PDK1 (UniProt Q15118)	0.177
UniProt Q4KMQ1	-0.231
PTPRK (UniProt Q15262)	0.289
PLEC (UniProt Q15149)	-0.232
PAN3 (UniProt Q58A45)	-0.282
UniProt Q2LD37	-5.25
FSCN1 (UniProt Q16658)	-0.402
UniProt Q4ADV7	0.281
COBLL1 (UniProt Q53SF7)	0.745
UniProt Q15776	-0.154

Target	melting temperature shift [°C]
RABL6 (UniProt Q3YEC7)	0.799
UniProt Q1MSJ5	0.49
PCK2 (UniProt Q16822)	0.0794
UBE2V2 (UniProt Q15819)	0.0268
CWF19L2 (UniProt Q2TBE0)	-0.436
ALDH1L2 (UniProt Q3SY69)	0.91
SEC23A (UniProt Q15436)	-0.287
SMN1 (UniProt Q16637)	-0.353
DDB1 (UniProt Q16531)	-0.839
HSDL1 (UniProt Q3SXM5)	-1.63
UniProt Q15361	0.5
GRIPAP1 (UniProt Q4V328)	-0.458
ARID4B (UniProt Q4LE39)	-0.102
MYLK (UniProt Q15746)	0
UniProt Q2VPB7	0.306
LACTB2 (UniProt Q53H82)	-4.83
UniProt Q2M1P5	1.71
FUT11 (UniProt Q495W5)	1.22
